# Paper PMC5093622, “Structural characterisation of high affinity Siglec-2 (CD22) ligands in complex with whole Burkitt’s lymphoma (BL) Daudi cells by NMR spectroscopy” (Scientific Reports, 2016)
# Test system: T1, Siglec-2 expressed on intact Burkitt's lymphoma (BL) Daudi cells
# T1 construct: host or cells: BL Daudi cells
# Test: STD NMR binding to intact BL Daudi cells
# Design: species or system human
# Conditions: bound to BL Daudi cells, STDD
# From the text: Anti-human Siglec-1 (CD169)-FITC, (clone: 7-239); Siglec-3 (CD33)-FITC, (clone: AC104.3E3); Siglec-5 (CD170)-FITC (clone: 1A5); Siglec-7 (CD328)-VioBlue, (clone: REA214); Siglec-8-FITC, (clone: 7C9) and relevant isotype controls were purchased from Miltenyi Biotech (Bergisch Gladbach, Germany, UE). Mouse anti-human Siglec-2 (CD22) primary antibody (clone RFB4) and the relevant isotype control (clone 1E2.2) were purchased from Merck Group (Darmstadt, Germany, UE). The rat anti-mouse secondary antibody BV421 conjugated was purchased from BD Biosciences (San Jose, CA, USA). Rabbit anti-human Siglec-4 (Myelin Associated Glycoprotein, MAG) was purchased from LifeSpan BioSciences (Seattle, WA, USA). The Donkey anti-rabbit secondary antibody (Clone Poly4064)-BV421 conjugated was purchased from Biolegend (San Diego, CA, USA). Anti-human Siglec-5/Siglec-14-APC (Clone 194128), Siglec-6 (CD327)-APC (Clone 767329), Siglec-9-FITC (Clone 191240); Goat Siglec-10-PE Affinity Purified PAb, Goat Siglec-11-PE Affinity Purified PAb, Goat IgG-PE control, Siglec-16-APC (Clone 706022), and relevant isotypes were purchased from R&D Systems (Minneapolis, MN, USA). BL Daudi and HEK293T cells were incubated with the antibodies for one hour at 4 °C in PBS supplemented with 1% FCS (PBS-FBS) at a ratio of 1 μg of antibody per 1 × 10^6 cells. The cells were washed three times and then suspended in 1 mL of PBS-FBS buffer prior to flow cytometry analysis. Propidium iodide was used at a concentration of 10 ug/mL to differentiate viable from non-viable cells. Secondary antibodies were used according to the suppliers’ instructions. A CyAn ADP Flow Cytometer and Kaluza Flow Cytometry software were used for flow cytometric analysis (Beckman Coulter, Brea, CA, USA). For sorting the BL Daudi cells into Siglec-2^low and Siglec-2^high fractions, antibody staining was achieved as described above. […] Cells were sorted into low and high expressing Siglec-2 groups based on their fluorescence intensity, using MoFlo XDP (Beckman Coulter, CA, USA). […]
compound,measurement,value
"COC1(C(=O)O)CC(NC(=O)c2cccc([N+](=O)[O-])c2)C(NC(C)=O)C(C(O)C(O)CNC(=O)c2ccc(-c3ccccc3)cc2)O1 (stereo not drawn) [compound 3, 9-biphenylcarboxamido-4-meta-nitrophenyl-carboxamido-Neu5Acα2Me]",relative STD NMR effect of H3 equatorial proton (H3eq),122%
same,relative STD NMR effect of H^o proton (ring A),94%
same,relative STD NMR effect of H^p proton (ring A),103%
